From patent US9725423B2, “Tetrazolinone compound and applications thereof” (SUMITOMO CHEMICAL COMPANY, LIMITED, priority 2012, dated 2017)
Some entries share one result that the patent states for a list of compounds.

Experiments:
Assay type in all cases: in vivo
[1] = system: kidney bean stem rot fungus (Sclerotinia sclerotiorum); assay: Kidney bean stem rot control test, foliar spray on kidney bean (Test Examples 4, 10); conditions: kidney bean (NAGAUZURA INGEN), four days after inoculation
[2] = system: cucumber powdery mildew fungus (Sphaerotheca fuliginea); assay: Cucumber powdery mildew control test, foliar spray on cucumber (Test Examples 6, 12, Comparative Test Example); conditions: 500 ppm, cucumber (SAGAMI HANJIRO), 8 days after inoculation
[3] = system: barley net blotch fungus (Pyrenophora teres); assay: Barley net blotch control test, foliar spray on barley (Test Examples 3, 9); conditions: barley (MIKAMO GOLDEN), inoculated two days after spraying
[4] = system: barley scald fungus (Rhynchosporium secalis); assay: Barley scald control test, foliar spray on barley (Test Example 14); conditions: 200 ppm, barley (MIKAMO GOLDEN), inoculated two days after spraying
[5] = system: wheat leaf blotch fungus (Septoria tritici); assay: Wheat leaf blotch control test, foliar spray on wheat (Test Examples 5, 11); conditions: wheat (APOGEE), inoculated four days after spraying

Measured: area of lesion spots relative to that on an untreated plant

CC(=NOCc1c(Cl)cccc1-n1nnn(C)c1=O)c1cccc(C(F)F)c1 [present compound 1, 1-{3-chloro-2-[1-(3-difluoromethylphenyl)ethylideneaminooxymethyl]phenyl}-4-methyl-1,4-dihydrotetrazol-5-one]
≤ 30%: [1]; 500 ppm | [2] | [3]; 500 ppm | [4] | [5]; 500 ppm

CC(=NOCc1c(C)cccc1-n1nnn(C)c1=O)c1cccc(C(F)F)c1 [present compound 2, 1-{3-methyl-2-[1-(3-difluoromethylphenyl)ethylideneaminooxymethyl]phenyl}-4-methyl-1,4-dihydrotetrazol-5-one]
≤ 30%: [1]; 500 ppm | [2] | [3]; 500 ppm | [4] | [5]; 200 ppm

COc1cccc(C(C)=NOCc2c(Cl)cccc2-n2nnn(C)c2=O)c1 [present compound 5, 1-{3-chloro-2-[1-(3-methoxyphenyl)ethylideneaminooxymethyl]phenyl}-4-methyl-1,4-dihydrotetrazol-5-one]
≤ 30%: [1]; 500 ppm | [2] | [3]; 500 ppm | [4] | [5]; 500 ppm

CC(=NOCc1c(Cl)cccc1-n1nnn(C)c1=O)c1ccc2c(c1)OC(F)(F)O2 [present compound 8, 1-{3-chloro-2-[1-(2,2-difluorobenzo[1,3]dioxoyl-5yl)ethylideneaminooxymethyl]phenyl}-4-methyl-1,4-dihydrotetrazol-5-one]
≤ 30%: [1]; 500 ppm | [4]

CC(=NOCc1c(C)cccc1-n1nnn(C)c1=O)c1cccc(OC(F)(F)C(F)F)c1 [present compound 33, 1-(3-methyl-2-{1-[3-(1,1,2,2-tetrafluoroethoxyl)phenyl]ethylideneaminooxymethyl}phenyl)-4-methyl-1,4-dihydrotetrazol-5-one]
≤ 30%: [1]; 500 ppm | [2] | [3]; 500 ppm | [4]

CC(=NOCc1c(C)cccc1-n1nnn(C)c1=O)c1ccc2ccccc2c1 [present compound 36, 1-[3-methyl-2-(1-naphthalen-2-ylethylideneaminooxymethyl)phenyl]-4-methyl-1,4-dihydrotetrazol-5-one]
≤ 30%: [1]; 500 ppm | [3]; 500 ppm | [4] | [5]; 500 ppm

CC(=NOCc1c(C)cccc1-n1nnn(C)c1=O)c1cccc([N+](=O)[O-])c1 [present compound 37, 1-{3-methyl-2-[1-(3-nitrophenyl)ethylideneaminooxymethyl]phenyl}-4-methyl-1,4-dihydrotetrazol-5-one]
≤ 30%: [1]; 500 ppm | [3]; 500 ppm | [4] | [5]; 500 ppm

COc1ccccc1C(C)=NOCc1c(C)cccc1-n1nnn(C)c1=O [present compound 97, 1-{3-methyl-2-[1-(2-methoxyphenyl)ethylideneaminooxymethyl]phenyl}-4-methyl-1,4-dihydrotetrazol-5-one]
≤ 30%: [1]; 500 ppm | [3]; 500 ppm | [4] | [5]; 500 ppm

CCC(=NOCc1c(CC)cccc1-n1nnn(C)c1=O)c1cccc(C(F)(F)F)c1 [present compound 101, 1-{3-ethyl-2-[1-(3-trifluoromethylphenyl)propylideneaminooxymethyl]phenyl}-4-methyl-1,4-dihydrotetrazol-5-one]
≤ 30%: [1]; 500 ppm | [2] | [3]; 500 ppm | [5]; 500 ppm

CC(=NOCc1c(-n2nnn(C)c2=O)cccc1C(F)(F)F)c1ccc2ccccc2c1 [present compound 117, 1-[2-(1-naphthalen-2-ylethylideneaminooxymethyl)-3-trifluoromethylphenyl]-4-methyl-1,4-dihydrotetrazol-5-one]
≤ 30%: [1]; 200 ppm | [4] | [5]; 500 ppm

CSc1cccc(C(C)=NOCc2c(C)cccc2-n2nnn(C)c2=O)c1 [present compound 122, 1-{3-methyl-2-[1-(3-methylsulfanylphenyl)ethylideneaminooxymethyl]phenyl}-4-methyl-1,4-dihydrotetrazol-5-one]
≤ 30%: [1]; 500 ppm | [3]; 500 ppm | [4] | [5]; 500 ppm

COc1cccc(-n2nnn(C)c2=O)c1CON=C(C)c1cccc2c1CCCC2 [present compound 130, 1-{3-methoxy-2-[1-(5,6,7,8-tetrahydronaphthalen-1-yl)ethylideneaminooxymethyl]phenyl}-4-methyl-1,4-dihydrotetrazol-5-one]
≤ 30%: [1]; 500 ppm | [3]; 200 ppm | [4] | [5]; 500 ppm

COc1cccc(-n2nnn(C)c2=O)c1CON=C(C)c1cccc2c1OC(F)(F)O2 [present compound 135, 1-{2-[1-(2,2-difluorobenzo[1,3]dioxan-4-yl)ethylideneaminooxymethyl]-3-methoxyphenyl}-4-methyl-1,4-dihydrotetrazol-5-one]
≤ 30%: [1]; 500 ppm | [2] | [3]; 500 ppm | [5]; 500 ppm

CC(=NOCc1c(C)cccc1-n1nnn(C)c1=O)c1cc(C)ccc1C [present compound 146, 1-{2-[1-(2,5-dimethylphenyl)ethylideneaminooxymethyl]-3-methylphenyl}-4-methyl-1,4-dihydrotetrazol-5-one]
≤ 30%: [1]; 500 ppm | [3]; 500 ppm | [4] | [5]; 500 ppm

CCc1cccc(-n2nnn(C)c2=O)c1CON=C(C)c1cccc2c1CCO2 [present compound 153, 1-{2-[1-(2,3-dihydrobenzofuran-4-yl)ethylideneaminooxymethyl]-3-ethylphenyl]-4-methyl-1,4-dihydrotetrazol-5-one]
≤ 30%: [1]; 500 ppm | [2] | [3]; 500 ppm | [5]; 500 ppm

CC(=NOCc1c(C)cccc1-n1nnn(C)c1=O)C1CCCCC1 [present compound 201, 1-[2-(1-cyclohexylethylideneaminooxymethyl)-3-methylphenyl]-4-methyl-1,4-dihydrotetrazol-5-one]
≤ 30%: [1]; 200 ppm | [3]; 200 ppm | [4]

CC(C=CC(C)C)=NOCc1c(C)cccc1-n1nnn(C)c1=O [present compound 204, 1-[2-(1,4-dimethylpentane-2-enylideneaminooxymethyl)-3-methylphenyl]-4-methyl-1,4-dihydrotetrazol-5-one]
≤ 30%: [1]; 500 ppm | [2] | [3]; 500 ppm | [5]; 500 ppm

CC(C=Cc1ccc(Cl)cc1)=NOCc1c(C)cccc1-n1nnn(C)c1=O [present compound 206, 1-{2-[3-(4-chlorophenyl)-1-methylallylideneaminooxymethyl)-3-methylphenyl]-4-methyl-1,4-dihydrotetrazol-5-one]
≤ 30%: [1]; 500 ppm | [3]; 500 ppm | [4]

CON=C(C(C)=NOCc1c(Cl)cccc1-n1nnn(C)c1=O)c1ccc(Cl)cc1 [present compound 214, 1-(4-chlorophenyl)propane-1,2-dione-2-{O-[2-chloro-6-(4-methyl-5-oxo-4,5-dihydrotetrazol-1-yl)benzyl]oxime}-1-(O-methyloxime)]
≤ 30%: [1]; 500 ppm | [2] | [4]

CC(=NOCc1c(C)cccc1-n1nnn(C)c1=O)c1ccco1 [present compound 259, 1-[2-(1-furan-2-yl-ethylideneaminooxymethyl) 3-methylphenyl]-4-methyl-1,4-dihydrotetrazol-5-one]
≤ 30%: [1]; 500 ppm | [3]; 500 ppm | [4] | [5]; 500 ppm
